# PubChem BioAssay AID1224830 | NIAID, 2016
# Screen: 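Genes whose knock-down alters the TNF-alpha reporter response to LPS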 (primary screen)
# Cell system: human THP-1 monocytic leukaemia cells, TNF dual-luciferase reporter clone, PMA-differentiated to macrophage-like cells
# Knock-down reagent: siRNA pool against human genes, 50 nM
# Time to read-out: LPS for 4 h, given about 3 days after siRNA transfection
# Challenge: bacterial LPS (TLR4 ligand), 10 ng/ml
# Detection: 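TNF firefly reporter luminescence divided by renilla, normalised to the plate median, then turned into a robust z-score for each replicate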
# Direction: TNF reporter robust z-score: higher = stronger TNF reporter response to LPS
# Hit rule: 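Each well counts as active if its z-score is over 2.8 or under -1.5; controls are left without a call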
# The whole screen tested about 18,000 reagents; shown is a part drawn at random. About 2,900 of them (16%) were called active. 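Calls are made per well; low scores hint the gene aids the LPS response, high scores that it dampens it.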 Repeated entries: four replicate wells of each siRNA pool.
gene symbol,TNF reporter robust z-score,outcome
SCN2B,0.93,inactive
SCN2B,2.53,inactive
SCN2B,0.16,inactive
SCN2B,0.14,inactive
CELF5,-0.08,inactive
CELF5,0.74,inactive
CELF5,1.65,inactive
CELF5,-0.04,inactive
B3GNT6,-0.49,inactive
B3GNT6,0.21,inactive
B3GNT6,-0.25,inactive
B3GNT6,-0.57,inactive
BLVRA,-0.52,inactive
BLVRA,-0.05,inactive
BLVRA,-0.56,inactive
BLVRA,0.63,inactive
ZNF428,-1.04,inactive
ZNF428,-0.51,inactive
ZNF428,-0.79,inactive
ZNF428,0.19,inactive
CLRN3,0.71,inactive
CLRN3,0.47,inactive
CLRN3,0.19,inactive
CLRN3,-0.42,inactive
SYNGR1,-0.04,inactive
SYNGR1,-1.67,active
SYNGR1,-1.03,inactive
SYNGR1,-1.19,inactive
ADHFE1,0.72,inactive
ADHFE1,0.6,inactive
ADHFE1,0.17,inactive
ADHFE1,0.55,inactive
PDE7B,1.07,inactive
PDE7B,0.68,inactive
PDE7B,-0.33,inactive
PDE7B,-0.13,inactive
ZFC3H1,-0.57,inactive
ZFC3H1,-0.96,inactive
ZFC3H1,-1.23,inactive
ZFC3H1,-1.43,inactive
CENPH,-0.9,inactive
CENPH,-0.92,inactive
CENPH,-1.04,inactive
CENPH,-0.78,inactive
BTNL9,0.33,inactive
BTNL9,0.98,inactive
BTNL9,0.97,inactive
NIPBL,-1.1,inactive
NIPBL,-1.45,inactive
NIPBL,-1.13,inactive
NIPBL,-0.98,inactive
SHQ1,-0.35,inactive
SHQ1,2.3,inactive
SHQ1,-0.14,inactive
SHQ1,0.99,inactive
WDR48,-0.08,inactive
WDR48,-0.04,inactive
WDR48,1.27,inactive
WDR48,1.17,inactive
OTOP2,-0.41,inactive
OTOP2,-0.81,inactive
OTOP2,-0.88,inactive
OTOP2,-0.33,inactive
ANKRD16,-1,inactive
ANKRD16,-0.61,inactive
ANKRD16,-0.48,inactive
ANKRD16,0.14,inactive
ZNF48,-0.66,inactive
ZNF48,-0.59,inactive
ZNF48,-0.8,inactive
ZNF48,-1.57,active
LTV1,0.53,inactive
LTV1,1.98,inactive
LTV1,2.27,inactive
LTV1,1.03,inactive
RNF183,0.2,inactive
RNF183,1.69,inactive
RNF183,1.22,inactive
RNF183,1.23,inactive
OR9G1,-0.17,inactive
OR9G1,0.5,inactive
OR9G1,-0.42,inactive
OR9G1,0.14,inactive
SNX3,0.38,inactive
SNX3,1.42,inactive
SNX3,-1,inactive
SNX3,-0.65,inactive
HMHB1,-0.51,inactive
HMHB1,-0.05,inactive
HMHB1,-1.25,inactive
HMHB1,-0.02,inactive
USP53,0.12,inactive
USP53,0.42,inactive
USP53,-0.33,inactive
USP53,0.64,inactive
SACK1E,-0.87,inactive
SACK1E,-0.73,inactive
SACK1E,-0.44,inactive
SACK1E,0.03,inactive
OR51F2,-1.32,inactive
OR51F2,-0.6,inactive
OR51F2,-0.76,inactive
OR51F2,-0.38,inactive
SEMA3F,-0.43,inactive
SEMA3F,0.78,inactive
SEMA3F,-0.9,inactive
SEMA3F,0.12,inactive
ZNF225,-0.46,inactive
ZNF225,-1.08,inactive
ZNF225,-1.38,inactive
ZNF225,-1.15,inactive
NFKBIE,-2.13,active
NFKBIE,-1.88,active
NFKBIE,-2.03,active
NFKBIE,-1.58,active
SNAPIN,-1.88,active
SNAPIN,-1.45,inactive
SNAPIN,-1.85,active
SNAPIN,-1.77,active
KIFAP3,-1.68,active
KIFAP3,0.15,inactive
KIFAP3,-0.3,inactive
KIFAP3,-0.33,inactive
RPL36,-0.15,inactive
RPL36,-0.37,inactive
RPL36,-1.21,inactive
RPL36,-0.43,inactive
TMEM245,-0.47,inactive
TMEM245,0.18,inactive
TMEM245,0.04,inactive
TMEM245,0.85,inactive
SPMIP2,-0.9,inactive
SPMIP2,-0.5,inactive
SPMIP2,-0.35,inactive
SPMIP2,0.24,inactive
DEGS2,0.02,inactive
DEGS2,0.16,inactive
DEGS2,-0.06,inactive
DEGS2,0.1,inactive
TSHZ1,-0.45,inactive
TSHZ1,0.01,inactive
TSHZ1,1.13,inactive
TSHZ1,1.8,inactive
